PubChem BioAssay AID2517 (National Center for Advancing Translational Sciences (NCATS), 2010)
Screen size: about 350,000 compounds; about 1,200 (0.34%) were called active. The inconclusive results got no clear call from the source; some entries with a clear call stand among them for comparison. Calls follow the shape of the dose curve; as a rule, active = well fitted inhibition curve with a large enough effect; inconclusive = small, poorly fitted or top-dose-only effect; inactive = no such curve, though single readings can be large or run the other way. Potencies beside an inconclusive call are fits to weak or partial responses and may not hold up.

By UniProt entry, the sequences of proteins in these tests, tags left out.
UniProt P27695, whole entry, looked up: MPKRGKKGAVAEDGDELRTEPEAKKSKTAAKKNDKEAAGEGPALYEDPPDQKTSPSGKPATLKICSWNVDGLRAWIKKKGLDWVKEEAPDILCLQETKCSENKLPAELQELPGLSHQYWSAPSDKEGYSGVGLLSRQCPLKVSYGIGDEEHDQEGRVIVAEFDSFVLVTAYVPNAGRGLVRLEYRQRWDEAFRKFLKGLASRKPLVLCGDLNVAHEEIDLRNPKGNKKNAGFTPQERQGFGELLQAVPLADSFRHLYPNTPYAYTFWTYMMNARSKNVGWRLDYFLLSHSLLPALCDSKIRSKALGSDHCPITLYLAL

Target: DNA repair nuclease/redox regulator APEX1 (Homo sapiens) (UniProt P27695)
Assay: qHTS Assay for Inhibitors of the Human Apurinic/apyrimidinic Endonuclease 1 (APE1); also: nearly all actives have a fitted effect of over 55% in size
Conditions: recombinant APE1, TAMRA/BHQ-2 abasic DNA cleavage fluorescence; series mostly up to 65.8 µM
Outline: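 Compound pre-exposure to 0.75 nM APE1, 15 min at ambient temperature. Reaction initiated with 50 nM TAMRA/BHQ-2 THF substrate, read immediately in kinetic mode, 525 nm excitation, 598 nm emission.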
Potency is read from the fitted curve at half-maximal effect.

SMILES	Potency
Cc1nc2[nH]c(=O)[nH]c(=O)c2[nH]1	inactive
CCn1c(-c2ccccc2SC)n[nH]c1=S	inconclusive: 141 µM [inhibitor, partial curve, poor fit]
Cc1ccc(NC(=O)COc2ccc(-c3nnco3)cc2)cc1S(=O)(=O)N1CCOCC1	inconclusive: 0.199 µM [inhibitor, full curve, poor fit]
O=[N+]([O-])c1ccc(-c2ccc(/C=N/c3c(-c4ccco4)nc4ccccn34)o2)c(Cl)c1	inactive
CCC1=C/C(=C\c2ccc3c(c2)OCO3)C(=O)S1	inconclusive: 35.5 µM [inhibitor, single point]
Oc1ccc(CCNc2c3ccccc3nc3ccccc23)cc1O	inconclusive: 16.8 µM [inhibitor, partial curve]
Cc1ccccc1C(=O)N1CCC(C(=O)N2CCN(c3ncccn3)CC2)CC1	inactive
Cc1cccc(-c2nnc(SCc3ccccc3)o2)c1	inconclusive: 44.7 µM [inhibitor, single point]
Cc1c(C(=O)O)sc2nc3n(c(=O)c12)CCC3	inconclusive: 25.1 µM [inhibitor, partial curve, poor fit]
COc1ccccc1/C=N/NC(=O)c1ccc(NC(=O)c2cccc([N+](=O)[O-])c2)cc1	inactive
COc1ccc(C(=O)Nc2nc(-c3ccc(OC)cc3)c(-c3ccc([N+](=O)[O-])cc3)s2)cc1	inconclusive: 35.5 µM [inhibitor, single point]
COC(=O)c1ccccc1OS(=O)(=O)N(C)C	inconclusive: 4.47 µM [inhibitor, single point]
CCc1c2c(nc3cccc(SC)c13)COC2	inconclusive: 6.31 µM [inhibitor, full curve, poor fit]
CN1C2CCC1/C(=C/c1cccn1C)C(=O)/C2=C\c1cccn1C	inactive
COc1cc(/C=N/Nc2nn3cnnc3c3ccccc23)cc(OC)c1OC	inconclusive: 12.6 µM [inhibitor, partial curve]
O=c1[nH]c(SCc2ccccc2)nc2c1sc1ccccc12	inconclusive: 0.178 µM [inhibitor, full curve, poor fit]
C=C(C)[C@H]1CC=C(CO)CC1	inconclusive: 0.251 µM [inhibitor, full curve, poor fit]
O=[N+]([O-])c1ccc(O)c(/C=N/NC2=NS(=O)(=O)c3ccccc32)c1	inactive
COc1cc(OC)c2c(-c3ccccc3)cc(=O)oc2c1C(CC(=O)N1CCCC1)c1ccc2c(c1)OCO2 (stereo not drawn)	inconclusive: 39.8 µM [inhibitor, single point]
COc1cccc2sc(Nc3nc4ccc(NC(C)=O)cc4s3)nc12	inconclusive: 10 µM [inhibitor, single point]
Cc1ccc(S(=O)(=O)N(C(=O)c2ccco2)c2cc3sc(=O)oc3c3ccccc23)cc1	inactive

SMILES	Potency
COC(=O)CCC(=O)NNC(=O)c1cccc(Br)c1	inconclusive: 0.005 µM [inhibitor, full curve]
Cc1ccc(S(=O)(=O)c2nc(-c3ccc(F)cc3)oc2SCC(=O)NCC2CCCO2)cc1 (stereo not drawn)	inconclusive: 7.94 µM [inhibitor, single point]
COc1ccc2c(Cl)c(-c3nnc(SCC(N)=O)n3C)sc2c1	inactive
C#CCOCCOCCOCCNc1nc(N2CCN(C(=O)[C@H](CCC(=O)O)n3cc(C(N)CO)nn3)CC2)nc(N2CCN(C(=O)[C@H](CCC(=O)O)n3cc(C(N)CC(C)C)nn3)CC2)n1 (stereo partly drawn)	inconclusive: 39.8 µM [inhibitor, single point]
CCCN1CC23C=CC(O2)C(C(=O)O)C3C1=O (stereo not drawn)	inconclusive: 15.8 µM [inhibitor, partial curve, poor fit]
C[N+](C)(C)C(Cc1c[nH]c2ccccc12)C(=O)[O-] (stereo not drawn)	inconclusive: 25.1 µM [inhibitor, single point]
CCC(=O)Nc1cccc(NC(C)=O)c1	inconclusive: 20 µM [inhibitor, partial curve]
Cc1nn(-c2cc(C(F)(F)F)ccn2)c(=O)o1	inconclusive: 7.08 µM [inhibitor, partial curve]
COc1ccc(S(=O)(=O)Nc2cc(C)c(O)c(S(=O)(=O)c3ccccc3)c2)cc1	inactive
O=C(CCc1ccccc1)NNc1cc(N2CCCCC2)nc(N2CCCCC2)n1	inconclusive: 4.47 µM [inhibitor, single point]
O=C(COC(=O)c1ccc(Cl)c(S(=O)(=O)N2CCCCC2)c1)NCC1CCCO1 (stereo not drawn)	inconclusive: 31.6 µM [inhibitor, single point]
Cc1nnc(NC(=O)/C=C/c2ccco2)s1	inconclusive: 5.62 µM [inhibitor, full curve, poor fit]
CC(C)(C)c1ccc(C(=O)NNc2cc(Cl)cc(Cl)c2)cc1	inconclusive: 31.6 µM [inhibitor, single point]
COc1ccc(C(C(=O)Nc2ccc(C(C)C)cc2)N(Cc2ccco2)C(=O)CC2NC(=O)NC2=O)cc1 (stereo not drawn)	inconclusive: 0.501 µM [inhibitor, full curve, poor fit]
C#CCOCCOCCOCCNc1nc(N2CCN(C(=O)CCCCCCCCCCNC(=O)[C@H](CCCCN)n3cc(CCCC(=O)O)nn3)CC2)nc(N2CCN(C(=O)CCCCCCCCCCNC(=O)[C@H](CCCN=C(N)N)n3cc(C[C@@H](C)CC)nn3)CC2)n1	inconclusive: 33.6 µM [inhibitor, single point]
Cc1cccc(Nc2nnc(SCC(=O)Nc3cccnc3Cl)s2)c1	inconclusive: 5.01 µM [inhibitor, single point]
CCOc1ccc(-c2nnc(NC(=O)c3ccc(OCC(C)C)c(OC)c3)o2)cc1	inconclusive: 44.7 µM [inhibitor, single point]
O=[N+]([O-])c1ccc(/C=N/N=C/c2ccc([N+](=O)[O-])o2)o1	inconclusive: 44.7 µM [inhibitor, single point]
COc1ccc(-c2c(S(=O)(=O)c3ccccc3)cnn2-c2ccccc2)cc1	inconclusive: 22.4 µM [inhibitor, single point]
CC1(C)CC(=O)C(C=Nc2ccc(O)c(N=CC3=C(O)CC(C)(C)CC3=O)c2)=C(O)C1	inactive
COc1ccc(C2Nc3ccccc3C(=O)N2Cc2ccccc2)cc1COc1ccccn1 (stereo not drawn)	inactive

As a working copy, some entries already given:
SMILES	Potency
C[N+](C)(C)C(Cc1c[nH]c2ccccc12)C(=O)[O-] (stereo not drawn)	inconclusive: 25.1 µM [inhibitor, single point]
CCC(=O)Nc1cccc(NC(C)=O)c1	inconclusive: 20 µM [inhibitor, partial curve]

Remaining list, next part:

SMILES	Potency
Cc1ccc(S(=O)(=O)c2nc(Nc3ccccc3C#N)sc2Cl)cc1	inconclusive: 4.47 µM [inhibitor, single point]
Cc1ccc(-n2ncc3c2CC(C)(C)CC3NC(=O)CCc2cccnc2)cc1 (stereo not drawn)	inactive
COc1cc(C(C#N)N2CCC(c3ccccc3)=N2)ccc1O (stereo not drawn)	inactive
CCOCc1nnc(NC(=O)c2cc(Cl)ccc2OC)s1	inconclusive: 3.16 µM [inhibitor, single point]
COc1ccc2c(c1)c(C(=O)N/N=C/c1cn(C)c3ccccc13)c(C)n2C	inconclusive: 1 µM [inhibitor, full curve]
CCOc1ccc(CCNC(=O)CSc2nnnn2C)cc1OCC	inconclusive: 39.8 µM [inhibitor, single point]
NC(=O)C1=C[C@H](c2coc3ccccc3c2=O)C[C@H](OCCCCO)O1	inconclusive: 35.5 µM [inhibitor, single point]
CC(=O)Nc1ccc2c(c1)n(C)c(=O)n2C	inconclusive: 0.199 µM [inhibitor, single point]
O=S(=O)(Nc1ccccc1)c1ccc(Oc2ncc(C(F)(F)F)cc2Cl)cc1	inconclusive: 25.1 µM [inhibitor, single point]
O=C(NCCCN1CCCC1)c1cc(Sc2ccc(F)cc2)nc2ccccc12	inconclusive: 1 µM [inhibitor, full curve, poor fit]
O=C(O)CCCN1C(=O)/C(=C/c2ccc(-c3nc4ccccc4s3)o2)SC1=S	inactive
NC12CCc3c(no[n+]3[O-])C1(O)CC(c1ccccc1)=[N+]2[O-] (stereo not drawn)	inconclusive: 3.55 µM [inhibitor, single point]
COc1cc(CCC(=O)OCC(=O)Nc2c(C)cc(C)cc2C)cc(OC)c1OC	inconclusive: 0.355 µM [inhibitor, partial curve, poor fit]
COCCCN=C(c1ccco1)n1c(=S)nc(-c2ccco2)n(CCCOC)c1=S	inconclusive: 39.8 µM [inhibitor, single point]
Cc1cc(NC(=O)Cc2ccccc2)c2ccccc2n1	inconclusive: 4.47 µM [inhibitor, full curve]
CCOC(=O)CCS(=O)(=O)c1nc(-c2ccccc2)cc(C(F)(F)F)n1	inactive
COC(=O)/C=C(\C)N=Nc1c(O)[nH]c2ccccc12	inconclusive: 3.16 µM [inhibitor, single point]
NC(N)=NCCC[C@H](N)C(=O)N1CCC[C@H]1C(=O)N1CCC[C@H]1C(=O)NCC(=O)N[C@@H](Cc1ccccc1)C(=O)N[C@@H](CO)C(=O)N1CCC[C@H]1C(=O)N[C@@H](Cc1ccccc1)C(=O)O	inactive
CC(C)COC(=O)C(C)Nc1n[nH]c(=S)[nH]c1=O (stereo not drawn)	inconclusive: 2.51 µM [inhibitor, full curve]
CCOC(=O)N/N=C1/C[C@@H](O)[C@@H](O)[C@@H]2[C@@H]3C(=O)N(Cc4ccccc4)C(=O)[C@H]3CC[C@@H]12	inconclusive: 3.16 µM [inhibitor, single point]
COc1cc(Cl)cc(C(c2c(C(=O)O)[nH]c3ccccc23)c2c(C(=O)O)[nH]c3ccccc23)c1O	inactive
